According to the supplement of paper PMC3682954:
Counter-ions that a name gives are not always drawn. ± gives the standard deviation of the averaged measurements. Some of the results follow. Single values are uncertain, as repeats are few or missing.

Test system: RAW 264.7
Assay: HMGB1-induced TNF-alpha production relative to HMGB1-stimulated control; higher = more TNF-alpha secretion (less inhibition)
Settings: stimulus: HMGB1 5 ug/ml, 18 h
[1] = compound concentration: 1 ug/ml

Compound | HMGB1-induced TNF-alpha production (compound concentration: 3 uM) [%] | HMGB1-induced TNF-alpha production [1] [%]
CC(C)NCC(O)c1cc(O)cc(O)c1 (stereo not drawn) [Metaproterenol hemisulfate] | 56.4 | 
CC(C)NCC(O)c1cc(O)cc(O)c1 (stereo not drawn) | 40.7 | 
CC(C)NCC(O)c1cc(O)cc(O)c1 (stereo not drawn) [Metaproterenol sulfate, orciprenaline sulfate] | 26.4 | 
O=[N+]([O-])c1cc2nc(O)c(O)nc2cc1[N+](=O)[O-] | 87.4 | 
CC(=O)/C(C)=N/O [2,3-Butanedione monoxime] | 98.3 | 
CCCCCCCCCCCCCCSCC(=O)O [Tetradecylthioacetic acid] | 101 | 
CCCn1cnc2c1c(=O)n(CCCCC(C)=O)c(=O)n2C [Propentofylline] | 112 | 
CCCn1cnc2c1c(=O)n(CCCCC(C)=O)c(=O)n2C | 78.7 | 
CC(C)(CO)Cc1cc(C(C)(C)C)c(O)c(C(C)(C)C)c1 | 76.6 | 
O=C(O)CN(CCN(CC(=O)O)CC(=O)O)CCN(CC(=O)O)CC(=O)O | 90.2 | 
O=C(O)CN(CCN(CC(=O)O)CC(=O)O)CCN(CC(=O)O)CC(=O)O [Pentetic acid] | 102 | 
O=C(O)CN(CCN(CC(=O)O)CC(=O)O)CCN(CC(=O)O)CC(=O)O [Diethylenetriaminepentaacetic acid] | 75.9 | 
C#CCN(C)CCCOc1ccc(Cl)cc1Cl [Clorgyline hydrochloride] | 85.5 ± 32 | 
C#CCN(C)CCCOc1ccc(Cl)cc1Cl | 78 | 
Cn1c(=O)c2c(ncn2CCO)n(C)c1=O [Etofylline] | 90.3 | 
COc1ccccc1N1CCN(CCCNc2cc(=O)n(C)c(=O)n2C)CC1 | 89.6 ± 25 | 
COc1ccccc1N1CCN(CCCNc2cc(=O)n(C)c(=O)n2C)CC1 [Urapidil hydrochloride] | 94.5 ± 2.4 | 
CN/C(=N\c1ccc(C2=NNC(=O)CC2C)cc1)NC#N (stereo not drawn) [Siguazodan] | 85.5 | 
Nc1ccn([C@H]2C[C@H](O)[C@@H](COP(=O)(O)O)O2)c(=O)n1 [2'-Deoxycytidine 5'-monophosphate] |  | 77.7
O=C(CCCN1CCC(O)(c2cccc(C(F)(F)F)c2)CC1)c1ccc(F)cc1 [Trifluperidol] | 90.3 | 
O=C(CCCN1CCC(O)(c2cccc(C(F)(F)F)c2)CC1)c1ccc(F)cc1 [Trifluperidol hydrochloride] | 98.4 | 
O=c1c2ccccc2nc2n1CCc1c-2[nH]c2ccccc12 [Rutaecarpine] | 112 | 
O=C(/C=C/C=C/c1ccc2c(c1)OCO2)N1CCCCC1 | 90.6 | 
CCC(=O)OCC(=O)[C@@]1(OC(=O)CC)[C@@H](C)C[C@H]2[C@@H]3CCC4=CC(=O)C=C[C@]4(C)[C@@]3(Cl)[C@@H](O)C[C@@]21C [Beclomethasone dipropionate] | 53.8 | 
CCC(=O)OCC(=O)[C@@]1(OC(=O)CC)[C@@H](C)C[C@H]2[C@@H]3CCC4=CC(=O)C=C[C@]4(C)[C@@]3(Cl)[C@@H](O)C[C@@]21C | 43.3 | 
COCC(=O)O[C@]1(CCN(C)CCCc2nc3ccccc3[nH]2)CCc2cc(F)ccc2[C@@H]1C(C)C [Mibefradil dihydrochloride] | 116 | 
CCN(CC)Cc1cc(Nc2ccnc3cc(Cl)ccc23)ccc1O | 79.1 | 

Compound | HMGB1-induced TNF-alpha production (compound concentration: 3 uM) [%] | HMGB1-induced TNF-alpha production [1] [%]
CCN(CC)Cc1cc(Nc2ccnc3cc(Cl)ccc23)ccc1O [Amodiaquin dihydrochloride dihydrate] | 54.5 | 
CCN(CC)CCNC(=O)COc1ccc(OC)cc1 [Mefexamide hydrochloride] | 92.6 | 
CCN(CC)CCNC(=O)COc1ccc(OC)cc1 | 102 | 
Cc1nc2n(c(=O)c1CCN1CCC(c3noc4cc(F)ccc34)CC1)CCCC2O (stereo not drawn) [Paliperidone] | 87.7 | 
CC(=O)OCC1=C(C(=O)O)N2C(=O)[C@@H](NC(=O)Cc3cccs3)[C@H]2SC1 | 83.4 | 
CC(=O)OCC1=C(C(=O)O)N2C(=O)[C@@H](NC(=O)Cc3cccs3)[C@H]2SC1 [Cephalothin sodium] | 78.4 | 
CC(=O)OCC1=C(C(=O)O)N2C(=O)[C@@H](NC(=O)Cc3cccs3)[C@H]2SC1 [Cephalothin sodium salt] | 71.7 | 
CC(C)(C)NCC(O)c1ccc(O)c(CO)c1 (racemic) | 37.3 | 
CCOc1ccc(NC(=O)CC(C)O)cc1 (stereo not drawn) | 79.8 | 
Clc1ccc(C(Cn2ccnc2)OCc2csc3c(Cl)cccc23)c(Cl)c1 (stereo not drawn) [Sertaconazole] | 118 | 
Clc1ccc(C(Cn2ccnc2)OCc2csc3c(Cl)cccc23)c(Cl)c1 (stereo not drawn) [Sertaconazole nitrate] | 114 | 
COc1c(O)cc2oc3cc(O)c(CC=C(C)C)c(O)c3c(=O)c2c1CC=C(C)C [Mangostin] |  | 52.1
C=CCCCCCCCCC(=O)O | 85.5 | 
CC1(C)S[C@@H]2[C@H](NC(=O)Cc3ccccc3)C(=O)N2[C@H]1C(=O)O [Benzathine benzylpenicillin] | 88.5 | 
CC1(C)S[C@@H]2[C@H](NC(=O)Cc3ccccc3)C(=O)N2[C@H]1C(=O)O [Benzylpenicillin sodium] | 121 | 
CC1(C)S[C@@H]2[C@H](NC(=O)Cc3ccccc3)C(=O)N2[C@H]1C(=O)O | 118 | 
CCCCc1nc(Cl)c(CO)n1Cc1ccc(-c2ccccc2-c2nnn[nH]2)cc1 [Losartan potassium] | 89.5 | 
CCCCc1nc(Cl)c(CO)n1Cc1ccc(-c2ccccc2-c2nnn[nH]2)cc1 | 79.6 | 
CCCCc1nc(Cl)c(CO)n1Cc1ccc(-c2ccccc2-c2nnn[nH]2)cc1 [Losartan] | 111 | 
CCCCc1nc(Cl)c(CO)n1Cc1ccc(-c2ccccc2-c2nnn[nH]2)cc1 [LOSARTAN Potassium] | 120 | 
O=C1CCC(N2C(=O)c3ccccc3C2=O)C(=O)N1 (stereo not drawn) | 81.1 | 
O=C1CCC(N2C(=O)c3ccccc3C2=O)C(=O)N1 (stereo not drawn) [Thalidomide] | 98 ± 14 | 
CC1(C)CC[C@]2(C(=O)O)CC[C@]3(C)C(=CC[C@@H]4[C@@]5(C)CC[C@H](O)C(C)(C)[C@@H]5[C@H](O)C[C@]43C)[C@@H]2C1 [Sumaresinolic acid] |  | 77.2
O=C1NCCN1CCN1CCC(c2cn(-c3ccc(F)cc3)c3ccc(Cl)cc23)CC1 [Sertindole] | 96.8 | 
O=C1OC(CN2CCOCC2)CN1/N=C/c1ccc([N+](=O)[O-])o1 (stereo not drawn) | 73 | 
O=C1OC(CN2CCOCC2)CN1/N=C/c1ccc([N+](=O)[O-])o1 (stereo not drawn) [Furaltadone hydrochloride] | 96.1 | 

2 entries drawn at random from the list so far, as already listed:
Compound | HMGB1-induced TNF-alpha production (compound concentration: 3 uM) [%] | HMGB1-induced TNF-alpha production [1] [%]
Clc1ccc(C(Cn2ccnc2)OCc2csc3c(Cl)cccc23)c(Cl)c1 (stereo not drawn) [Sertaconazole] | 118 | 
CCCCc1nc(Cl)c(CO)n1Cc1ccc(-c2ccccc2-c2nnn[nH]2)cc1 [Losartan potassium] | 89.5 | 
